# In article PMC6811854 (ACS Omega, 2019):
# Tested on: Neuro2A cells
# Assay: Neurite outgrowth assay
# Assay type: cell-based, mouse
# Details: differentiated Neuro2A cells, 48 h post-treatment, 10, 1, 0.1, 0.01 μM
smiles,measurement,value
"O=C(CCCCCCC(=O)Nc1ccccc1)NO [vorinostat, suberoylanilide hydroxamic acid, reference compound]",neurite outgrowth promotion compared to no inhibitor (vehicle),significantly more neurite outgrowth promotion
